PubChem BioAssay AID1259405, NCATS – 2018

Purpose: 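Mouse-designed siRNAs used to find CHO productivity engineering targets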 (primary screen)
System: Chinese hamster CHO-K1 ovary cells with stable secreted eGFP expression
Reagent: single siRNA against mouse genes, 0.8 pmol siRNA per well (2 µl of 400 nM stock)
Time to read-out: 3 days
Read-out: 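Per-well intracellular GFP measured by laser scanning cytometry, plus viability from ATP luminescence, each relative to plate median of non-targeting control wells, in %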
Reading the numbers: GFP, % of control: higher = more GFP per well, higher productivity; viability (ATP), % of control: higher = more viable cells (more ATP)
Rule for the call: 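a knock-down is called active if GFP reaches 120% or more of non-targeting control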
Here is one part, drawn at random, of about 50,000 deposited reagents. In the full data, about 4,000 (8%) got an active call. 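Mouse siRNA library applied to hamster cells; one well for each siRNA.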 The numbers tell different reagents against one gene apart.

target | reagent no. | GFP, % of control | viability (ATP), % of control | Outcome
F10 (coagulation factor X) | 1 | 60.4 | 94.3 | inactive
F10 (coagulation factor X) | 2 | 51.5 | 67.3 | inactive
F10 (coagulation factor X) | 3 | 34.9 | 64.3 | inactive
Or10n1 (olfactory receptor family 10 subfamily N member 1) | 1 | 67 | 77.1 | inactive
Or10n1 (olfactory receptor family 10 subfamily N member 1) | 2 | 61.5 | 99.8 | inactive
Or10n1 (olfactory receptor family 10 subfamily N member 1) | 3 | 57.3 | 65.3 | inactive
Atg2b (autophagy related 2B) | 1 | 103 | 74.7 | inactive
Atg2b (autophagy related 2B) | 2 | 98.3 | 111 | inactive
Atg2b (autophagy related 2B) | 3 | 135 | 75.9 | active
Atg2b (autophagy related 2B) | 4 | 65.4 | 71.5 | inactive
Atg2b (autophagy related 2B) | 5 | 71.2 | 62.1 | inactive
Atg2b (autophagy related 2B) | 6 | 94.3 | 112 | inactive
Thy1 (thymus cell antigen 1, theta) | 1 | 92.9 | 71.7 | inactive
Thy1 (thymus cell antigen 1, theta) | 2 | 95 | 86.3 | inactive
Thy1 (thymus cell antigen 1, theta) | 3 | 62.7 | 110 | inactive
Snx16 (sorting nexin 16) | 1 | 142 | 72.4 | active
Slc18a2 | 1 | 79.6 | 56.6 | inactive
Slc18a2 | 2 | 84.5 | 76.4 | inactive
Slc18a2 | 3 | 113 | 101 | inactive
Rpl36al (ribosomal protein L36A-like) | 1 | 84.4 | 72.3 | inactive
Rpl36al (ribosomal protein L36A-like) | 2 | 100 | 87.7 | inactive
Rpl36al (ribosomal protein L36A-like) | 3 | 45 | 44.2 | inactive
Fat1 (FAT atypical cadherin 1) | 1 | 55.3 | 62.4 | inactive
Fat1 (FAT atypical cadherin 1) | 2 | 99.4 | 91.5 | inactive
Vmn1r51 (vomeronasal 1 receptor 51) | 1 | 64.7 | 75.7 | inactive
Vmn1r51 (vomeronasal 1 receptor 51) | 2 | 64.6 | 74.6 | inactive
Vmn1r51 (vomeronasal 1 receptor 51) | 3 | 73.6 | 73.5 | inactive
Gde1 (glycerophosphodiester phosphodiesterase 1) | 1 | 134 | 83 | active
Gde1 (glycerophosphodiester phosphodiesterase 1) | 2 | 122 | 59.9 | active
Gde1 (glycerophosphodiester phosphodiesterase 1) | 3 | 102 | 87.5 | inactive
Zfp68 (zinc finger protein 68) | 1 | 67.1 | 59.8 | inactive
Zfp68 (zinc finger protein 68) | 2 | 64.2 | 67.2 | inactive
Zfp68 (zinc finger protein 68) | 3 | 66.7 | 66.6 | inactive
Ptpn18 (protein tyrosine phosphatase, non-receptor type 18) | 1 | 118 | 114 | inactive
Ptpn18 (protein tyrosine phosphatase, non-receptor type 18) | 2 | 101 | 91 | inactive
Ptpn18 (protein tyrosine phosphatase, non-receptor type 18) | 3 | 68.8 | 83 | inactive
Odad3 (outer dynein arm docking complex subunit 3) | 1 | 65.4 | 44.2 | inactive
Odad3 (outer dynein arm docking complex subunit 3) | 2 | 86.9 | 71.6 | inactive
Odad3 (outer dynein arm docking complex subunit 3) | 3 | 108 | 86.6 | inactive
Tomm7 (translocase of outer mitochondrial membrane 7) | 1 | 68.6 | 70.6 | inactive
Tomm7 (translocase of outer mitochondrial membrane 7) | 2 | 82.1 | 78.4 | inactive
Tomm7 (translocase of outer mitochondrial membrane 7) | 3 | 50.5 | 67.7 | inactive
Zfp61 (zinc finger protein 61) | 1 | 48.7 | 66.7 | inactive
Zfp61 (zinc finger protein 61) | 2 | 73 | 78.8 | inactive
Zfp61 (zinc finger protein 61) | 3 | 61.6 | 29 | inactive
Opn3 (opsin 3) | 1 | 101 | 75.3 | inactive
Opn3 (opsin 3) | 2 | 58.6 | 67.4 | inactive
Opn3 (opsin 3) | 3 | 50.6 | 70.2 | inactive
Or10g7 (olfactory receptor family 10 subfamily G member 7) | 1 | 68 | 54.7 | inactive
Or10g7 (olfactory receptor family 10 subfamily G member 7) | 2 | 76.2 | 62.5 | inactive
Or10g7 (olfactory receptor family 10 subfamily G member 7) | 3 | 49 | 63.4 | inactive
Nkx6-2 (NK6 homeobox 2) | 1 | 38.5 | 29.7 | inactive
Nkx6-2 (NK6 homeobox 2) | 2 | 68.3 | 52.7 | inactive
Nkx6-2 (NK6 homeobox 2) | 3 | 47.4 | 49 | inactive
Bcl7b (B cell CLL/lymphoma 7B) | 1 | 55.2 | 39.6 | inactive
Bcl7b (B cell CLL/lymphoma 7B) | 2 | 30.1 | 41.9 | inactive
Bcl7b (B cell CLL/lymphoma 7B) | 3 | 112 | 119 | inactive
Adat1 (adenosine deaminase, tRNA-specific 1) | 1 | 68.1 | 56.8 | inactive
Adat1 (adenosine deaminase, tRNA-specific 1) | 2 | 63 | 59.5 | inactive
Adat1 (adenosine deaminase, tRNA-specific 1) | 3 | 191 | 188 | active
Pcdh7 (protocadherin 7) | 1 | 107 | 74 | inactive
Pcdh7 (protocadherin 7) | 2 | 38.7 | 64.5 | inactive
Pcdh7 (protocadherin 7) | 3 | 76 | 74 | inactive
Tgif2lx1 (TGFB-induced factor homeobox 2-like, X-linked 1) | 1 | 126 | 133 | active
Tgif2lx1 (TGFB-induced factor homeobox 2-like, X-linked 1) | 2 | 93.5 | 84.2 | inactive
Tgif2lx1 (TGFB-induced factor homeobox 2-like, X-linked 1) | 3 | 95.8 | 87.9 | inactive
Or4c10b (olfactory receptor family 4 subfamily C member 10B) | 1 | 46.9 | 33.8 | inactive
Or4c10b (olfactory receptor family 4 subfamily C member 10B) | 2 | 103 | 88.1 | inactive
Or4c10b (olfactory receptor family 4 subfamily C member 10B) | 3 | 56 | 142 | inactive
Pprc1 | 1 | 81.1 | 78.6 | inactive
Pprc1 | 2 | 171 | 147 | active
Prox1 (prospero homeobox 1) | 1 | 74.9 | 81.8 | inactive
Prox1 (prospero homeobox 1) | 2 | 113 | 92.4 | inactive
Prox1 (prospero homeobox 1) | 3 | 83.4 | 105 | inactive
Or5p76 (olfactory receptor family 5 subfamily P member 76) | 1 | 67.2 | 42.1 | inactive
Or5p76 (olfactory receptor family 5 subfamily P member 76) | 2 | 47.4 | 66.3 | inactive
Or5p76 (olfactory receptor family 5 subfamily P member 76) | 3 | 0.0288 | 26.5 | inactive
Pigm (phosphatidylinositol glycan anchor biosynthesis, class M) | 1 | 88.9 | 44.2 | inactive
Pigm (phosphatidylinositol glycan anchor biosynthesis, class M) | 2 | 86.8 | 74.5 | inactive
Pigm (phosphatidylinositol glycan anchor biosynthesis, class M) | 3 | 86.5 | 97.6 | inactive
Ripk4 (receptor-interacting serine-threonine kinase 4) | 1 | 38.7 | 36.4 | inactive
C1ra (complement component 1, r subcomponent A) | 1 | 91.6 | 70.4 | inactive
C1ra (complement component 1, r subcomponent A) | 2 | 63.8 | 98.4 | inactive
Mrpl14 (mitochondrial ribosomal protein L14) | 1 | 91.3 | 64.3 | inactive
Mrpl14 (mitochondrial ribosomal protein L14) | 2 | 97.4 | 87.9 | inactive
Mrpl14 (mitochondrial ribosomal protein L14) | 3 | 119 | 60.6 | inactive
Klhl10 (kelch-like 10) | 1 | 80.3 | 46.2 | inactive
Klhl10 (kelch-like 10) | 2 | 77.8 | 81.8 | inactive
Thrsp (thyroid hormone responsive) | 1 | 57.7 | 72.9 | inactive
Thrsp (thyroid hormone responsive) | 2 | 84.3 | 83.3 | inactive
Thrsp (thyroid hormone responsive) | 3 | 118 | 91.8 | inactive
Mpp2 | 1 | 84.8 | 66 | inactive
Adgrf3 (adhesion G protein-coupled receptor F3) | 1 | 87.9 | 75.1 | inactive
Adgrf3 (adhesion G protein-coupled receptor F3) | 2 | 57.5 | 83.8 | inactive
Adgrf3 (adhesion G protein-coupled receptor F3) | 3 | 50.1 | 57.4 | inactive
Or6c66 (olfactory receptor family 6 subfamily C member 66) | 1 | 83.4 | 106 | inactive
Or6c66 (olfactory receptor family 6 subfamily C member 66) | 2 | 66.4 | 78.2 | inactive
Or6c66 (olfactory receptor family 6 subfamily C member 66) | 3 | 102 | 79 | inactive
Gli1 (GLI-Kruppel family member GLI1) | 1 | 111 | 75.3 | inactive
Gli1 (GLI-Kruppel family member GLI1) | 2 | 111 | 84.1 | inactive
Rnf128 (ring finger protein 128) | 1 | 86.6 | 61.7 | inactive
Rnf128 (ring finger protein 128) | 2 | 33.4 | 40 | inactive
Rnf128 (ring finger protein 128) | 3 | 69.6 | 72 | inactive
Cacnb1 (calcium channel, voltage-dependent, beta 1 subunit) | 1 | 56.3 | 60.7 | inactive
Cacnb1 (calcium channel, voltage-dependent, beta 1 subunit) | 2 | 49 | 66.9 | inactive
Cacnb1 (calcium channel, voltage-dependent, beta 1 subunit) | 3 | 70.7 | 92.2 | inactive
Unc50 (unc-50 homolog) | 1 | 70 | 77.6 | inactive
Unc50 (unc-50 homolog) | 2 | 70.9 | 45.1 | inactive
Unc50 (unc-50 homolog) | 3 | 79.1 | 94.5 | inactive

Quoted from the listing, 9 entries:
target | reagent no. | GFP, % of control | viability (ATP), % of control | Outcome
Thy1 (thymus cell antigen 1, theta) | 1 | 92.9 | 71.7 | inactive
Thy1 (thymus cell antigen 1, theta) | 2 | 95 | 86.3 | inactive
Thy1 (thymus cell antigen 1, theta) | 3 | 62.7 | 110 | inactive
Snx16 (sorting nexin 16) | 1 | 142 | 72.4 | active
Slc18a2 | 1 | 79.6 | 56.6 | inactive
Slc18a2 | 2 | 84.5 | 76.4 | inactive
Slc18a2 | 3 | 113 | 101 | inactive
Rpl36al (ribosomal protein L36A-like) | 1 | 84.4 | 72.3 | inactive
Rpl36al (ribosomal protein L36A-like) | 2 | 100 | 87.7 | inactive
